Data reported in patent US20050196806A1, “Prostate specific antigen oligoepitope peptide” (The Government of the USA, as represented by the Secretary, …, priority 1996, published 2005).
For some assays here: At least one peptide structure holds a part that was inferred or is arguable (an end, a ring closure or a residue). For some assays here: At least one compound was matched to its structure with a doubt left. Marks after values point to notes of the source that are not given here. Residues, ends and D or L forms follow the SMILES beside them.

How the values were obtained:
[1] = tested on: PBLs isolated from male HLA-A2001+ donors; experiment: Limiting dilution analysis of CTL precursor frequency; type: cell-based, human; settings: for Number of precursors (precursor frequency): calculated by X^2 minimization; for % of negative microcolonies, 10,000: two cycles of stimulation with the peptide, targets CIRA2 pulsed 3 h, cold K562
Description: Limiting dilution assays were used for the determination of precursor frequencies to PSA-1, PSA-3 and PSA-OP. Various number of PBMCs were seeded in 96-well flat bottom plates (Coming Costar) with 1×10^4 autologous PBMC irradiated with 4,000 rads and incubated with 50 μg/ml of PSA peptide. Cells were cultured in complete medium as described previously. At least 48 cultures were set up for each dilution. Cultures were incubated for 5 days at 37° C. in a humidified atmosphere containing 5% CO2 and then provided with fresh medium containing human IL-2 for 11 days, with IL-2-containing medium being replenished every 72 hr as shown below for CTLs generation. After two cycles of stimulation specific cytotoxic activity was tested for each single well, against CIR-A2 target cells with or without incubation with peptide. Cytotoxic assays were similar to the method described above. The unlabelled K562 cells were added to the microwells containing responder cells. After 1 hr incubation at 37° C. target cells were added into each well and incubated for 6 hrs at 37° C. Precursor frequencies were calculated by X^2 minimization.

CIR-A2 cells = experiment: Effects of protease inhibitors on CTL mediated killing of CIRA2 cells pulsed with PSA-OP; type: cell-based, human; settings: inhibitor 10^−5 M; Donor-1 PSA-OP CTL; 25:1 E:T ratio
Description: Various target cells were labeled with 50 μCi of ^111In-oxyquinoline (Medi-Physics Inc., Arlington, Ill.) for 15 minutes at room temperature. Target cells (0.2×10^4) in 100 μl of complete medium (see below) were added to each of 96 wells in flat bottom assay plates (Corning Costar Corp.). The labeled targets were incubated with peptides at a final concentration of 50 μg/ml for 60 min at 37° C. in 5% CO2 before adding effector cells. Effector cells were suspended in 100 μl of complete medium supplemented with 5% pooled human AB serum and added to target cells. The plates were incubated at 37° C. for 16 hours. Supernatants were harvested for γ-counting using harvester frames (Skatron, Inc. Sterling, Va.). Determinations were carried out in triplicate and standard deviations were calculated. All experiments were carried out three times. Specific Lysis was calculated using the following formula: % of Specific Release=observed release(cpm)−spontaneous release(cpm) total releae(cpm)−spontaneous release(cpm)×100
[…] Peptide pulsed target cells were incubated with protease inhibitors. Protease inhibitors used were E64, carboxypeptidase inhibitor, plummer inhibitor, and captopril (angiotension converting enzyme inhibitor) at various concentrations (10^−5, 10^−6, 10^−7 M). CTL activity was determined by the CTL assay described above.

Structure (SMILES) | % of negative microcolonies, 500 ([1]; T/PSA-OP 2 donor) | % of negative microcolonies, 1,000 ([1]; T/PSA-OP 2 donor) | % of negative microcolonies, 5,000 ([1]; T/PSA-OP 2 donor) | Number of precursors (precursor frequency) ([1]; T/PSA-OP 2 donor) | % of negative microcolonies, 10,000 ([1]; T/PSA-OP 2 donor) | % of negative microcolonies, 500 ([1]; T/PSA-OP 3 donor) | % of negative microcolonies, 1,000 ([1]; T/PSA-OP 3 donor) | % of negative microcolonies, 5,000 ([1]; T/PSA-OP 3 donor) | Number of precursors (precursor frequency) ([1]; T/PSA-OP 3 donor) | % of negative microcolonies, 10,000 ([1]; T/PSA-OP 3 donor) | % of Specific Release (+/−SD), CIRA2 cells pulsed with PSA-OP peptide [50 μg/ml] (CIR-A2 cells)
CC[C@H](C)[C@H](NC(=O)[C@@H](NC(=O)[C@H](Cc1c[nH]cn1)NC(=O)[C@H](CC(C)C)NC(=O)[C@H](CC(=O)O)NC(=O)[C@@H](NC(=O)[C@H](CS)NC(=O)[C@H](CCC(N)=O)NC(=O)[C@H](CC(C)C)NC(=O)[C@H](CCCCN)NC(=O)[C@H](CCCCN)NC(=O)[C@@H]1CCCN1C(=O)[C@@H](NC(=O)[C@H](CC(C)C)NC(=O)[C@@H](N)Cc1ccccc1)[C@@H](C)O)C(C)C)C(C)C)C(=O)N[C@@H](CO)C(=O)N[C@@H](CC(N)=O)C(=O)N[C@@H](CC(=O)O)C(=O)N[C@H](C(=O)N[C@@H](CS)C(=O)N[C@@H](C)C(=O)N[C@@H](CCC(N)=O)C(=O)N[C@H](C(=O)N[C@@H](Cc1c[nH]cn1)C(=O)N1CCC[C@H]1C(=O)N[C@@H](CCC(N)=O)C(=O)N[C@@H](CCCCN)C(=O)N[C@H](C(=O)N[C@H](C(=O)N[C@@H](CCCCN)C(=O)O)[C@@H](C)O)C(C)C)C(C)C)C(C)C [PSA-OP] (H-FLTPKKLQCVDLHVISNDVCAQVHPQKVTK-OH; N-terminus and C-terminus assumed) | 100.0% | 100.0% | 89.3% | 1/80006 | 91.6% | 96.9% | 95.8% | 95.8% | 1/70229 | 93.7% | –
NC(N)=NCCSCC(CS)C(=O)O (centres unmarked) [Plummer's] | – | – | – | – | – | – | – | – | – | – | 18.7* (2.4) %
